In patent US9044520B2, “Compound accumulating in inflammatory site, diagnostic agent containing the compound in labeled state and its precursor compound for labeling” (Nihon Medi-Physics Co., Ltd., priority 2011, dated 2015):
At least one compound was matched to its structure with a doubt left. Non-standard residues stand in square brackets, D forms with d. Residues, ends and D or L forms follow the SMILES beside them. *: point of attachment. Benzoyl(4-F) = O=C(c1ccc(F)cc1)*; Nle = CCCC[C@H](N)C(=O)O; For = O=C*

Molecular target: T1, formylated peptide receptor (FPR) (Homo sapiens, UniProt P21462)
T1 sequence (P21462 1-350): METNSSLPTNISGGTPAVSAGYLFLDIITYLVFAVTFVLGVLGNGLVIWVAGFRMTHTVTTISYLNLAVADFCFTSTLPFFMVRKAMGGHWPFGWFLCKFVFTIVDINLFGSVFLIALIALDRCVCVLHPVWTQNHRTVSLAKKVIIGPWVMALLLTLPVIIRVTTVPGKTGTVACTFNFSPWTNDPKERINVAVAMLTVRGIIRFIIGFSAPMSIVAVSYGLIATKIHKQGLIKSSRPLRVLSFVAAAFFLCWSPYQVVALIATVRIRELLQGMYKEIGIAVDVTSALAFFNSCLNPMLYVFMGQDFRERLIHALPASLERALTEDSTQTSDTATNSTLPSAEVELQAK
Assay: Binding assay/inhibition assay: binding affinity for formylated peptide receptor (FPR), displacement of [125I] Trp-Lys-Tyr-Met-Val-DMet
Details: radioligand [125I] Trp-Lys-Tyr-Met-Val-DMet, 25° C., 1 hour; Ki calculated from IC50, Kd 0.39 nM, [L] 0.2 nM; read-out: Ki (Mean value ± SD)
Procedure: Each peptide having a different concentration (DMSO solution, 10 μL), 2 nmol/L [^125I] Trp-Lys-Tyr-Met-Val-DMet (10 μL) as radioligand, and FPR (10 μL) were added to a binding buffer (170 μL) and incubated at 25° C. for 1 hour, followed by collection by filtration (cell harvesters) using a GF/C filter coated with a polylysine buffer. After washing, radioactivity left on the filter was measured using a γ counter. [^125I] Trp-Lys-Tyr-Met-Val-DMet means a positive control having affinity for FPR and was obtained from PerkinElmer Co., Ltd. for use.
*Binding buffer: 50 mmol/L Hepes, pH 7.4, 5 mmol/L MgCl2, 1 mmol/L CaCl2, 0.2% BSA
Wash buffer: 50 mmol/L Hepes, pH 7.4, 500 mmol/L NaCl, 0.1% BSA
Polylysine buffer: Poly-L-lysine hydrobromate 100 mg/wash buffer 100 mL
Ki values in the table were calculated using the following equation (1).
IC50: Calculation from Graph Pad
[L]: Concentration of Radioligand (Adjusted to 0.2 nM)

Question: How did the Ki turn out when CCCC[C@H](NC=O)C(=O)N[C@@H](CC(C)C)C(=O)N[C@@H](Cc1ccccc1)C(=O)N[C@@H](CCCC)C(=O)N[C@@H](Cc1ccc(O)cc1)C(=O)N[C@H](CCCCN)C(=O)N[C@H](CCCCN)C(=O)N[C@H](CCCCNC(=O)c1ccc(F)cc1)C(=O)N[C@H](CCCCN)C(N)=O [Peptide 7, formyl-Nle-Leu-Phe-Nle-Tyr-DLys-DLys-DLys-DLys-ε([^19F]FB)-DLys-NH2, reference compound] (For-[Nle]LF[Nle]Y[dK][dK][dK](Benzoyl(4-F))[dK]-NH2) was run?
Answer: 86.7 ± 33.8 nM
